Results published in US20210318312A1.
These are yes or no findings as the source states them, for the method shown. Binding seen in cells or lysates may run through a third protein. Some results given as binding are weak or reduced against the parent protein; the word gives no strength. Sequences can lack the tags named with a protein.

Amino acid sequences for entries named in this document (tags omitted). Residues count along the entry.
UniProt P14735: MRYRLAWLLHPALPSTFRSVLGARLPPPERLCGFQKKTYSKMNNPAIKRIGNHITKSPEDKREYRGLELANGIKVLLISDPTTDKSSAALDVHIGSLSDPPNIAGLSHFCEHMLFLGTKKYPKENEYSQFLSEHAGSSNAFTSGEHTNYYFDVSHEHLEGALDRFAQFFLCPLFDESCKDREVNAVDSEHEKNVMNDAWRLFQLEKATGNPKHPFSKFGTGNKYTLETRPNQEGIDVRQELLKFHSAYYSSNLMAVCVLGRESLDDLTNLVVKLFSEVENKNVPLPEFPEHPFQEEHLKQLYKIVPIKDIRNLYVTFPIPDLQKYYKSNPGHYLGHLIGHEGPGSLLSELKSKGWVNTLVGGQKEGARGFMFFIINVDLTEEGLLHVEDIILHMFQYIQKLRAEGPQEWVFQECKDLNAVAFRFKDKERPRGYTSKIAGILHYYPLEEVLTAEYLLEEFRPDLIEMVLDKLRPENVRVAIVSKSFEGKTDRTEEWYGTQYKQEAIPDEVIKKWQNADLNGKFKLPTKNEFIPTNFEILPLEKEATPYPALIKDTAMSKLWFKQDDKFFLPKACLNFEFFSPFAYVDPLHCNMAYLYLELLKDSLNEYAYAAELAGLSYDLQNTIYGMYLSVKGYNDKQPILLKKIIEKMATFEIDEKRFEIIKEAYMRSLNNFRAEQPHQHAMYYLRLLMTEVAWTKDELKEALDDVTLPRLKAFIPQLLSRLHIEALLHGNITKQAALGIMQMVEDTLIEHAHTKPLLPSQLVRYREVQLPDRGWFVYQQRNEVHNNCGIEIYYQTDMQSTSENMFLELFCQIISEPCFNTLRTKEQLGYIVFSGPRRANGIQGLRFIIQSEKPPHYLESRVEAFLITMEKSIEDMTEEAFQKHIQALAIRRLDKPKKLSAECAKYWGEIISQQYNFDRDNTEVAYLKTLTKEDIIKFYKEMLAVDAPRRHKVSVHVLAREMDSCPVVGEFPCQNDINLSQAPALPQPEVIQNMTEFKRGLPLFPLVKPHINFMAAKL
UniProt P00367, residues 54-558: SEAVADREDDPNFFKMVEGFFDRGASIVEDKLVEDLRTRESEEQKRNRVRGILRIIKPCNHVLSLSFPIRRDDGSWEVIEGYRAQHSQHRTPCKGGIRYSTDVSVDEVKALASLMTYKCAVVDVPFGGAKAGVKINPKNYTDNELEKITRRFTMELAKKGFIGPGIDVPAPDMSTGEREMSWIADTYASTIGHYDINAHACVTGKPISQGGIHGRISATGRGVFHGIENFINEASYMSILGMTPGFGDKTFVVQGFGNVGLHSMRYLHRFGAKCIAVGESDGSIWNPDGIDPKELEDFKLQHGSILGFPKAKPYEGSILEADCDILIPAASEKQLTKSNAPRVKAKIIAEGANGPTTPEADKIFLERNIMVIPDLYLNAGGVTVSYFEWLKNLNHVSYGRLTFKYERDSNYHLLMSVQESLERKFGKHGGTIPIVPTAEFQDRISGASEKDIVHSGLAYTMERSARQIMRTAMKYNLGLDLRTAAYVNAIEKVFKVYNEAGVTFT

Assays:
Assay in all cases: IP-MS of SIRT4-EGFP from MRC5 mitochondria, SAINT scoring
IDE, endogenous (human) = IDE, endogenous (human) (UniProt P14735)
[1] = molecular target: glutamate dehydrogenase (GLUD1), endogenous (human) (UniProt P00367)
[2] = molecular target: T1, MLYCD (malonyl-CoA decarboxylase), endogenous (human) (UniProt O95822)
T1 sequence (looked up): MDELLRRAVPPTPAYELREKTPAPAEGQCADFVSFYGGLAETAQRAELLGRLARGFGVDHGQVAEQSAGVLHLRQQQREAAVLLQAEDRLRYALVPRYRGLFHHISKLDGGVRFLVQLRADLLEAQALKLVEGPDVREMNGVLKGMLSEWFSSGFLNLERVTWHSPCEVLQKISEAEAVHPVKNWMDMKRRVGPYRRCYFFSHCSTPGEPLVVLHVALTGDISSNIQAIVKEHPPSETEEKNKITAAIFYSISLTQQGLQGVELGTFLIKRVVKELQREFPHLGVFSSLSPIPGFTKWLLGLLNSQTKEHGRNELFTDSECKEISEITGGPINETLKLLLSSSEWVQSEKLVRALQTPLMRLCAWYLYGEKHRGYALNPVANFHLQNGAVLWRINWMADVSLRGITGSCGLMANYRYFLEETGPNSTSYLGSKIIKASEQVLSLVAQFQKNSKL

binding (IDE, endogenous (human)): binds
binding [1]: binds
binding [2]: binds
B1: SIRT4-EGFP (enzyme, not shown: large carriers)
chain: IGLFVPASPPLDPEKVKELQRFITLSKRLLVMTGAGISTESGIPDYRSEKVGLYARTDRRPIQHGDFVRSAPIRQRYWARNFVGWPQFSSHQPNPAHWALSTWEKLGKLYWLVTQNVDALHTKAGSRRLTELHGCMDRVLCLDCGEQTPRGVLQERFQVLNPTWSAEAHGLAPDGDVFLSEEQVRSFQVPTCVQCGGHLKPDVVFFGDTVNPDKVDFVHKRVKEADSLLVVGSSLQVYSGYRFILTAWEKKLPIAILNIGPTRSDDLACLKLNSRCGELLPLIDPC
